From paper PMC7862700
The entries are a selection whose mix differs from that of the whole data set. At the low end of the ranking the order means little.

How the values were obtained:
Experiment in all cases: DAPPL (digital affinity profiling via proximity ligation, sequencing)
Details in all cases: 10 mM Tris-HCl pH 7.5, 50 mM NaCl, 1 mM DTT, 4% glycerol, room temperature, 30 min; GST-TFs on glutathione beads, 16-mer random dsDNA library, 0.1% …; high values mean tight binding; double strand, one strand shown; scale: fold enrichment (6-mer frequency, TF over GST control)
ELK1 = molecular target: T1, ELK1 (UniProt P19419)
T1 sequence: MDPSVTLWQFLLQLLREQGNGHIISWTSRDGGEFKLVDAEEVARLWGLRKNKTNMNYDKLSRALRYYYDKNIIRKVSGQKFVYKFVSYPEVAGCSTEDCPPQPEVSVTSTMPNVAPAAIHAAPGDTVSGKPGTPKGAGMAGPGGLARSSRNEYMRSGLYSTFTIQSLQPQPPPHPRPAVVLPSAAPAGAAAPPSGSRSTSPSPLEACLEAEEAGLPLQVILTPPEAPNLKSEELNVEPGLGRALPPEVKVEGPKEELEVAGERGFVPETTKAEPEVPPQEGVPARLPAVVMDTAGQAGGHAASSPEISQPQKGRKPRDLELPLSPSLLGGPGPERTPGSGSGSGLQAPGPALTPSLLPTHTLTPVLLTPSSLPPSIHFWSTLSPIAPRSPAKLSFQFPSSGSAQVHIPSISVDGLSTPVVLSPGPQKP

SPIC = molecular target: T2, SPIC (UniProt Q8N5J4)
T2 sequence: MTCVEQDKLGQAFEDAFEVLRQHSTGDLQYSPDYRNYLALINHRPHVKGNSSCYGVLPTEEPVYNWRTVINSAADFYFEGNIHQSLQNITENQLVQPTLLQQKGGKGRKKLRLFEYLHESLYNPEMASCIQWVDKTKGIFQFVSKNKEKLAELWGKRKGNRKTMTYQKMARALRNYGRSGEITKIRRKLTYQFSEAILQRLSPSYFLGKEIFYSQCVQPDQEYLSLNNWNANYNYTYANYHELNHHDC

ETV3 = molecular target: T3, ETV3 (UniProt P41162-2)
T3 sequence: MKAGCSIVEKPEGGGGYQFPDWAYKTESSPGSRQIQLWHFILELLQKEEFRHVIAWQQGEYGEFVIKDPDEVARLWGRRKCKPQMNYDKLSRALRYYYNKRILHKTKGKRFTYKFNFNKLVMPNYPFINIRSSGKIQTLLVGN

ELK3 = molecular target: T4, ELK3 (UniProt P41970)
T4 sequence: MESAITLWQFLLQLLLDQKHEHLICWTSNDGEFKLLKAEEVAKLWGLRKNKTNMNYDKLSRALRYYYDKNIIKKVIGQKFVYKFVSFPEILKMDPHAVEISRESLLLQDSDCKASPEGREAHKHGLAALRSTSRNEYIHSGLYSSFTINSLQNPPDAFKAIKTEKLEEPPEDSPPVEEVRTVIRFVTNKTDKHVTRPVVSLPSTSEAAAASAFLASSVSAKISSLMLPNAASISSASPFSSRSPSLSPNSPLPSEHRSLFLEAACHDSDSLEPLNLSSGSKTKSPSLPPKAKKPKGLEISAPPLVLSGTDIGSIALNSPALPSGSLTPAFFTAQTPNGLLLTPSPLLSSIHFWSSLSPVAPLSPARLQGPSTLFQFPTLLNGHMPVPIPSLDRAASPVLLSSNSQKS

ETS2 = molecular target: T5, ETS2 (UniProt P15036)
T5 sequence: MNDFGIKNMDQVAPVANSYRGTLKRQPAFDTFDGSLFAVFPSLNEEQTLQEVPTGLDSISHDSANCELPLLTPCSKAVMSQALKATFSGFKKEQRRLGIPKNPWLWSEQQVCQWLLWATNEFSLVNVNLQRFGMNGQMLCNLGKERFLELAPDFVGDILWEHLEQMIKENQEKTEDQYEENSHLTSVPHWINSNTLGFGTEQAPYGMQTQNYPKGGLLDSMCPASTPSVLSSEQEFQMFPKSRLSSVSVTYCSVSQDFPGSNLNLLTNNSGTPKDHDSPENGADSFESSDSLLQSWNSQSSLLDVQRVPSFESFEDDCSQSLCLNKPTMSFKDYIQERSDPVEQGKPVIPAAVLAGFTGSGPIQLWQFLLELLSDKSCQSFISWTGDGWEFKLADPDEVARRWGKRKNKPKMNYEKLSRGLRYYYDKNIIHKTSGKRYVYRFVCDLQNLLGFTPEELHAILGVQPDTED

Sequence	binding signal (ELK1)	binding signal (SPIC)	binding signal (ETV3)	binding signal (ELK3)	binding signal (ETS2)
TCACGG	0.976	1	0.97	–	–
TTGACG	1.16	0.875	0.973	–	–
AGCGCT	0.96	0.897	1.01	–	–
TTTCAA	1.23	1.33	1.31	–	–
ATCGCT	1.09	0.985	1.05	1.1	–
GGCTTT	0.959	0.994	0.973	–	–
AGGGCT	0.989	0.984	1.06	–	–
AAAGTC	0.985	0.895	0.988	–	–
TGCGGT	0.942	0.91	–	0.862	0.89
ACAAAG	0.993	0.987	0.996	1.04	–
CCTGAA	1.39	1.28	1.4	–	–
AAAGAT	1.21	1.22	1.28	–	–
GACGAC	0.912	0.823	0.995	–	–
TGTCAC	1.11	1.31	–	1.2	–
ATATTG	–	1.41	–	–	1.36
TCAAGC	0.965	0.962	–	1.09	–

Sequence	binding signal (ELK1)	binding signal (SPIC)	binding signal (ETV3)	binding signal (ELK3)	binding signal (ETS2)
TGCAAG	1.11	0.936	–	0.92	–
CATGAC	–	0.986	–	–	1.2
CCGGTC	1.18	1.01	–	1.18	–
GAATTG	1.12	0.932	–	1.21	–
TTACTA	1.31	1.38	–	1.31	–
ATGCTG	0.961	1.14	–	0.923	–
TTTAGT	0.972	1.15	–	1.11	–
CCAACA	–	1.01	–	–	1.03
TGCCAT	1.06	1.12	–	1.12	–
CTTGAA	1.24	1.09	–	0.994	–
TTATGC	–	1.55	–	–	1.28
CCGCCA	–	1.37	–	–	1.22
CTGAAA	1.14	1.35	–	1.03	–
ATTAGT	0.977	0.954	–	0.933	–
GGCTAT	1.06	1.03	–	0.969	–

Random excerpt: 2 records from the list
Sequence	binding signal (ELK1)	binding signal (SPIC)	binding signal (ETV3)	binding signal (ELK3)	binding signal (ETS2)
TTATGC	–	1.55	–	–	1.28
CTGAAA	1.14	1.35	–	1.03	–
